From PMC12140422
Results are given in words; binding and its absence hold for the method and conditions named. In cells and extracts the contact can be indirect. Some entries that bind do so weakly or less than the wild type. Where a sequence is shown, tags or fusion partners need not be part of it.

Sequences of proteins named here, by UniProt entry; tags and fusion partners are left off.
UniProt Q13283: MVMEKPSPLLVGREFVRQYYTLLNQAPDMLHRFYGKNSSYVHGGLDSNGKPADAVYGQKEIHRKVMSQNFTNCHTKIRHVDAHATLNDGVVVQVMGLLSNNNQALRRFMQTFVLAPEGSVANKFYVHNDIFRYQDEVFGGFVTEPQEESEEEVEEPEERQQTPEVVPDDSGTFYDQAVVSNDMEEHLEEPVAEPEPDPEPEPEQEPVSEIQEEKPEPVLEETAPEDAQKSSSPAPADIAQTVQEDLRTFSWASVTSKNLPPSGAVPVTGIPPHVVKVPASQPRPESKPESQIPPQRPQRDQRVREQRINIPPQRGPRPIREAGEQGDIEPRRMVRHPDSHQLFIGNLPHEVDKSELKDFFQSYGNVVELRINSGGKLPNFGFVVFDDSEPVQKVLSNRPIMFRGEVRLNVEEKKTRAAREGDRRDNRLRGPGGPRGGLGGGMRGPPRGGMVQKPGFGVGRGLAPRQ

Target: T1, Flag-MOV10 (full length human MOV10) (human) (UniProt Q9HCE1)
T1 sequence: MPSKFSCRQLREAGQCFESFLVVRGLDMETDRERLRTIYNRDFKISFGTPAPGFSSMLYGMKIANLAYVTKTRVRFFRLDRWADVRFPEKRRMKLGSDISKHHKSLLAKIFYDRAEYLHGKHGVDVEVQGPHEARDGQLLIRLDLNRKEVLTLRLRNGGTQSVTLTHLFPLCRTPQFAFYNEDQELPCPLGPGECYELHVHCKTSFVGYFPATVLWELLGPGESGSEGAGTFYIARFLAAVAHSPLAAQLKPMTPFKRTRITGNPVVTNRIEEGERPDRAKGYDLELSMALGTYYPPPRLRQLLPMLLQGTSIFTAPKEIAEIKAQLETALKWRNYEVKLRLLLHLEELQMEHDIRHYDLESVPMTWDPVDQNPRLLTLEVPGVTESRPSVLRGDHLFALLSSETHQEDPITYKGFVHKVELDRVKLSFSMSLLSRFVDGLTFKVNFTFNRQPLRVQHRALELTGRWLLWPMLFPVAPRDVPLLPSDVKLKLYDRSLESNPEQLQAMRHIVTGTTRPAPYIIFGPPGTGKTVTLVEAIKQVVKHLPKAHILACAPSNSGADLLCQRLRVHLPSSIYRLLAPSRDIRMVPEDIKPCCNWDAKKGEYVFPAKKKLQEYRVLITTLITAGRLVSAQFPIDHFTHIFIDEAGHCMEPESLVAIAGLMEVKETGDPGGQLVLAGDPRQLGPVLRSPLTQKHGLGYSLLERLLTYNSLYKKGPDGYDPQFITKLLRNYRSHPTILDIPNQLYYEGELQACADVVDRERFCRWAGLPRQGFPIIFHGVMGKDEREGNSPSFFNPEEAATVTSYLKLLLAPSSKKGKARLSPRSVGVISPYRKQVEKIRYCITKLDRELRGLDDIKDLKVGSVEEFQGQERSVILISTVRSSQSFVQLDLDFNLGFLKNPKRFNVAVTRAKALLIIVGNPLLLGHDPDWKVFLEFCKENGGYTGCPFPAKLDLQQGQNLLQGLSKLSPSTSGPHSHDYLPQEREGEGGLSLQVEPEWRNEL
Assay: co-IP; anti-Flag IP from HEK293T cells overexpressing Flag-MOV10, its truncations or MOV10/Caprin-1 chimeras; immunoblot for endogenous G3BP1, Flag and Actin

With “Ras-GTPase-activating protein SH3-domain-binding protein 1 (G3BP1) (from UniProt Q13283 1-466)” the binding was “binds”.
